# Assay results: PMC10709353
# No constants are given. Whether binding was seen depends on the method and setting. Binding seen in cells or lysates may run through a third protein. Here binding means that the protein was enriched with, or labelled near, the bait; the list need not be complete.
# T1: UTP14A (human (endogenous in HeLa)) (UniProt Q9BVJ6)
# T1 sequence: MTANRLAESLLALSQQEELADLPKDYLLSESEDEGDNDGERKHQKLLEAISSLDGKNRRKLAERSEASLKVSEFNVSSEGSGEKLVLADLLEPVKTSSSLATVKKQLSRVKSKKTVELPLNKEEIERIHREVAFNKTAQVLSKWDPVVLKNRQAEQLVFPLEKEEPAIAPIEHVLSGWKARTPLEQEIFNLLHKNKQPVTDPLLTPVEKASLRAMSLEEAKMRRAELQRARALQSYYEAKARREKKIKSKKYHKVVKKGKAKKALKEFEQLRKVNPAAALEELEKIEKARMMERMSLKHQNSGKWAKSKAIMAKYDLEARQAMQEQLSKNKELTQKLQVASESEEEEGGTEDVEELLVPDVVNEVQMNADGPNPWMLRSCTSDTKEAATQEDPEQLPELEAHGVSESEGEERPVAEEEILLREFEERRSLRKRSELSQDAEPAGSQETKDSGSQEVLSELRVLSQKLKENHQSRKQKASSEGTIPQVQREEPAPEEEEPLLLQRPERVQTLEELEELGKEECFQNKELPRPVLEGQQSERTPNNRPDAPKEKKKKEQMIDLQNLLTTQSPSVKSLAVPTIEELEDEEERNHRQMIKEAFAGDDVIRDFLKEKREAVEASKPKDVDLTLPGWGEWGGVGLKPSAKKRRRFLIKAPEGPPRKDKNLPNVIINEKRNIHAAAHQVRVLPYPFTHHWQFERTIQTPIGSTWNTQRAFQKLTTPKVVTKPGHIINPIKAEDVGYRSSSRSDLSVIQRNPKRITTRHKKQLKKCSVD
# Biological target: T1, UTP14A (human (endogenous in HeLa))
# Assay: affinity purification with mass spectrometry; IP of endogenous UTP14A (antibody crosslinked to protein A/G beads) against IgG control from HeLa cells transfected for 72 h with siControl, siSENP3, siSENP5 or siSENP3/5; 50 mM HEPES, 150 mM NaCl, 1.5 mM MgCl2, 1 mM EGTA, 10% glycerol, 1% Triton X-100, pH 7.2, 10 mM NEM; four replicates; label-free quantification
binder,measurement,value
"RRP12 (protein, UniProt Q5JTH9 1-1297) MGRSGKLPSGVSAKLKRWKKGHSSDSNPAICRHRQAARSRFFSRPSGRSDLTVDAVKLHNELQSGSLRLGKSEAPETPMEEEAELVLTEKSSGTFLSGLSDCTNVTFSKVQRFWESNSAAHKEICAVLAAVTEVIRSQGGKETETEYFAALMTTMEAVESPESLAAVAYLLNLVLKRVPSPVLIKKFSDTSKAFMDIMSAQASSGSTSVLRWVLSCLATLLRKQDLEAWGYPVTLQVYHGLLSFTVHPKPKIRKAAQHGVCSVLKGSEFMFEKAPAHHPAAISTAKFCIQEIEKSGGSKEATTTLHMLTLLKDLLPCFPEGLVKSCSETLLRVMTLSHVLVTACAMQAFHSLFHARPGLSTLSAELNAQIITALYDYVPSENDLQPLLAWLKVMEKAHINLVRLQWDLGLGHLPRFFGTAVTCLLSPHSQVLTAATQSLKEILKECVAPHMADIGSVTSSASGPAQSVAKMFRAVEEGLTYKFHAAWSSVLQLLCVFFEACGRQAHPVMRKCLQSLCDLRLSPHFPHTAALDQAVGAAVTSMGPEVVLQAVPLEIDGSEETLDFPRSWLLPVIRDHVQETRLGFFTTYFLPLANTLKSKAMDLAQAGSTVESKIYDTLQWQMWTLLPGFCTRPTDVAISFKGLARTLGMAISERPDLRVTVCQALRTLITKGCQAEADRAEVSRFAKNFLPILFNLYGQPVAAGDTPAPRRAVLETIRTYLTITDTQLVNSLLEKASEKVLDPASSDFTRLSVLDLVVALAPCADEAAISKLYSTIRPYLESKAHGVQKKAYRVLEEVCASPQGPGALFVQSHLEDLKKTLLDSLRSTSSPAKRPRLKCLLHIVRKLSAEHKEFITALIPEVILCTKEVSVGARKNAFALLVEMGHAFLRFGSNQEEALQCYLVLIYPGLVGAVTMVSCSILALTHLLFEFKGLMGTSTVEQLLENVCLLLASRTRDVVKSALGFIKVAVTVMDVAHLAKHVQLVMEAIGKLSDDMRRHFRMKLRNLFTKFIRKFGFELVKRLLPEEYHRVLVNIRKAEARAKRHRALSQAAVEEEEEEEEEEEPAQGKGDSIEEILADSEDEEDNEEEERSRGKEQRKLARQRSRAWLKEGGGDEPLNFLDPKVAQRVLATQPGPGRGRKKDHGFKVSADGRLIIREEADGNKMEEEEGAKGEDEEMADPMEDVIIRNKKHQKLKHQKEAEEEELEIPPQYQAGGSGIHRPVAKKAMPGAEYKAKKAKGDVKKKGRPDPYAYIPLNRSKLNRRKKMKLQGQFKGLVKAARRGSQVGHKNRRKDRRP",binding,binds
